These are yes or no findings as the source states them, for the method shown. In cells and extracts the contact can be indirect. Some entries that bind do so weakly or less than the wild type. For some assays here: Where a sequence is shown, tags or fusion partners need not be part of it.
T1: developmentally regulated GTP-binding protein 1 (DRG1), HA-DRG1 expressed in 293T cells (UniProt P32233)
T1 sequence: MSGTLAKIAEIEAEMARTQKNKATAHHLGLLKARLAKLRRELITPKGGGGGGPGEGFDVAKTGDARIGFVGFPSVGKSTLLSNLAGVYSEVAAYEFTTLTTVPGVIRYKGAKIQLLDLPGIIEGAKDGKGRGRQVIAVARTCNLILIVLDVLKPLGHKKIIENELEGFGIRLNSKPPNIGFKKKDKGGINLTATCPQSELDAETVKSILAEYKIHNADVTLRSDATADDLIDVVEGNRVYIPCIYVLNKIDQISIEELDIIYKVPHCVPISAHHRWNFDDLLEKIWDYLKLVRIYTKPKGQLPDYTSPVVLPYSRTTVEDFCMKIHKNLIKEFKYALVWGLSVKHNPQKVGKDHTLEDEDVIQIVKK

T2: developmentally regulated GTP-binding protein 1 (DRG1), endogenous in HL-1 cells (mouse (endogenous in HL-1)) (UniProt P32233)
T2 sequence: T1 sequence

B1: DRG family regulatory protein 1 (DFRP1), expressed in 293T cells (protein, UniProt Q3TIV5 1-426)
chain: MPPKKQAQAGGSKKAEQKKKEKIIEDKTFGLKNKKGAKQQKFIKAVTHQVKFGQQNPRQVAQSEAEKKLKKDDKKKELQELNELFKPVVAAQKISKGADPKSVVCAFFKQGQCTKGDKCKFSHDLTLERKCEKRSVYIDARDEELEKDTMDNWDEKKLEEVVNKKHGEAEKKKPKTQIVCRHFLEAIENNKYGWFWVCPGGGDNCMYRHALPPGFVLKKDKKKEEKEDEISLEDLIERERSALGPNVTKITLESFLAWKKRKRQEKIDKLEQDMERRKADFKAGKALVISGREVFEFRPELVNDDDEEADDTRYIQGTGGDEVDDSMGVNDIDISLYVPRDVEETGITVASVERFSTYAPDKDENKLSEASGGLAENGERSDLDEDSGGGGQENGSIDAVPVDENLFTGEDLDELEEELNTLDLEE
B2: DRG family regulatory protein 1 (DFRP1), endogenous in HL-1 cells (protein, UniProt Q3TIV5 1-426)
chain: B1 chain

Columns and labels:
[1] = molecular target: T1, developmentally regulated GTP-binding protein 1 (DRG1), HA-DRG1 expressed in 293T cells; test: co-IP; exogenous co-IP in transfected 293T cells; also with or without cotransfected Cardinal or Cardinal-as, plasmid amounts titrated for comparable inputs
[2] = molecular target: T2, developmentally regulated GTP-binding protein 1 (DRG1), endogenous in HL-1 cells (mouse (endogenous in HL-1)); test: co-IP; endogenous co-IP in HL-1 cells with anti-DRG1, IgG as control; also in sh-NC and sh-Cardinal HL-1 cells

Binder | binding [1] | binding [2]
B1 | binds | –
B2 | – | binds
